Experimental data as given in article doi:10.1101/2023.11.02.565342.
No constants are given. Whether binding was seen depends on the method and setting.

T1: TOPOVIBLΔC25 K281E K282E (Mus musculus, UniProt J3QMY9 1-554, K281E;K282E)
T1 sequence: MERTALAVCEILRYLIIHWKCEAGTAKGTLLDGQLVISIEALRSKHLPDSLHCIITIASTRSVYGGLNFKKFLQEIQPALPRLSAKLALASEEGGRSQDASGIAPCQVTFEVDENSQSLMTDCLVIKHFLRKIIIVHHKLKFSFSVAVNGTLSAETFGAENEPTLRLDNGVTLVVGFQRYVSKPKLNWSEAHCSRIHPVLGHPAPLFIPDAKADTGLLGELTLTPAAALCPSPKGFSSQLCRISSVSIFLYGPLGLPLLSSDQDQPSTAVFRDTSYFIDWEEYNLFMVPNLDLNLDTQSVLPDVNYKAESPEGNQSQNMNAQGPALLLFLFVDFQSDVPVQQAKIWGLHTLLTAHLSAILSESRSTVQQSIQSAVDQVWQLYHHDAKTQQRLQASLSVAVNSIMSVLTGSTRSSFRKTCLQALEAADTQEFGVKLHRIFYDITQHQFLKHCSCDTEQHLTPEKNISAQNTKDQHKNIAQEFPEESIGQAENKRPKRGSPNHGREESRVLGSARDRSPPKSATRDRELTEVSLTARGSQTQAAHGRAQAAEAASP


Assays:
[1] = molecular target: TOPOVIBLΔC25 (mouse) (UniProt J3QMY9); test: SEC
[2] = molecular target: TOPOVIBLΔC25 (mouse) (UniProt J3QMY9); test: SEC-MALS
[3] = molecular target: TOPOVIBLΔC25 (mouse) (UniProt J3QMY9); test: native MS
[4] = molecular target: TOPOVIBLΔC25 (mouse) (UniProt J3QMY9); test: SEC-SAXS
[5] = molecular target: T1, TOPOVIBLΔC25 K281E K282E; test: SEC

binding [1]	binding [2]	binding [3]	binding [4]	binding [5]	Binder
no binding (condition: after 50 mM DTT)	no binding	no binding	no binding (tested: 12 mg/mL injected)		TOPOVIBLΔC25 (domain or fragment, UniProt J3QMY9 1-554) MERTALAVCEILRYLIIHWKCEAGTAKGTLLDGQLVISIEALRSKHLPDSLHCIITIASTRSVYGGLNFKKFLQEIQPALPRLSAKLALASEEGGRSQDASGIAPCQVTFEVDENSQSLMTDCLVIKHFLRKIIIVHHKLKFSFSVAVNGTLSAETFGAENEPTLRLDNGVTLVVGFQRYVSKPKLNWSEAHCSRIHPVLGHPAPLFIPDAKADTGLLGELTLTPAAALCPSPKGFSSQLCRISSVSIFLYGPLGLPLLSSDQDQPSTAVFRDTSYFIDWKKYNLFMVPNLDLNLDTQSVLPDVNYKAESPEGNQSQNMNAQGPALLLFLFVDFQSDVPVQQAKIWGLHTLLTAHLSAILSESRSTVQQSIQSAVDQVWQLYHHDAKTQQRLQASLSVAVNSIMSVLTGSTRSSFRKTCLQALEAADTQEFGVKLHRIFYDITQHQFLKHCSCDTEQHLTPEKNISAQNTKDQHKNIAQEFPEESIGQAENKRPKRGSPNHGREESRVLGSARDRSPPKSATRDRELTEVSLTARGSQTQAAHGRAQAAEAASP
				no binding	TOPOVIBLΔC25^K281EK282E (domain or fragment, UniProt J3QMY9 1-554) MERTALAVCEILRYLIIHWKCEAGTAKGTLLDGQLVISIEALRSKHLPDSLHCIITIASTRSVYGGLNFKKFLQEIQPALPRLSAKLALASEEGGRSQDASGIAPCQVTFEVDENSQSLMTDCLVIKHFLRKIIIVHHKLKFSFSVAVNGTLSAETFGAENEPTLRLDNGVTLVVGFQRYVSKPKLNWSEAHCSRIHPVLGHPAPLFIPDAKADTGLLGELTLTPAAALCPSPKGFSSQLCRISSVSIFLYGPLGLPLLSSDQDQPSTAVFRDTSYFIDWEEYNLFMVPNLDLNLDTQSVLPDVNYKAESPEGNQSQNMNAQGPALLLFLFVDFQSDVPVQQAKIWGLHTLLTAHLSAILSESRSTVQQSIQSAVDQVWQLYHHDAKTQQRLQASLSVAVNSIMSVLTGSTRSSFRKTCLQALEAADTQEFGVKLHRIFYDITQHQFLKHCSCDTEQHLTPEKNISAQNTKDQHKNIAQEFPEESIGQAENKRPKRGSPNHGREESRVLGSARDRSPPKSATRDRELTEVSLTARGSQTQAAHGRAQAAEAASP
